Data taken from PubChem BioAssay AID1347076 (National Center for Advancing Translational Sciences (NCATS), 2019).
The whole screen tested about 400,000 compounds, of which about 13,000 (3.2%) were called active. Inconclusive results, whose numbers are uncertain, are shown with a selection of clear calls. Calls come from the whole dose curve; as a rule, active = well fitted cell-killing curve with a large enough effect; inconclusive = small, poorly fitted or top-dose-only effect, or effect the other way; inactive = flat fitted curve, though single readings scatter. Potencies of inconclusive entries are doubtful fits and often do not repeat.

experiment: qHTS assay for MDR1-selective chemotherapeutics: Primary screen using the drug-selected MDR subline cells KB-V1; conditions: KB-V1 MDR cells viability, CellTiter-Glo, 72 h; activity change, negative = cytotoxicity: at 46.1 µM (top of the series); note: nearly all actives have a fitted effect of over 60% in size
How it was run: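 In this primary screen, KB-V1 cells overexpressing P-gp are incubated with library compounds (lowest to highest concentration) for 72 h at 37 degrees C before a luminescent ATP viability read.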
% is set by controls: 0 for no effect and ±100 for the full control effect; potency is the fitted concentration of half-maximal effect.

SMILES | activity change, negative = cytotoxicity | Potency
O=C1CCCc2[nH]c(-c3ccccc3)nc21 | inactive: 13.5% | –
COc1cccc(S(=O)(=O)N2CCN(c3ccccc3F)CC2)c1 | – | inconclusive: 20.6 µM [cytotoxic, single point]
Cc1ccc(S(=O)(=O)NCCC(=O)NC2CCCCCC2)cc1C | – | active: 18.4 µM
COC(=O)c1[nH]c2ccc(C)cc2c1NC(=O)CN1CCCC(C)(C)C1 | – | inconclusive: 23.1 µM [cytotoxic, single point]
Cc1cc(Cl)ccc1OCC(=O)NCc1ccncc1 | – | inconclusive: 29.1 µM [cytotoxic, single point]
COc1ccccc1OCCNC(=O)C(c1ccccc1)c1ccccc1 | – | inconclusive: 6.51 µM [cytotoxic, partial curve]
C=CCc1c(C)nc(C)nc1N/N=C/c1ccccc1O | – | active: 7.31 µM
CCCCN(Cc1ccco1)C(=O)c1cc2c(=O)[nH]c3ccc(C)cc3c2s1 | inactive: -16.2% | –
c1ccc(Oc2ccc(-c3ccnc4nc(N5CCOCC5)nn34)cc2)cc1 | – | inconclusive: 29.1 µM [cytotoxic, single point]
CC1(C)OC(=O)C2=C(C[C@@H](CCc3ccccc3)O[C@@H]2c2ccc(F)cc2)O1 | – | inconclusive: 14.6 µM [cytotoxic, partial curve]
Cc1ccc(NC(=O)c2ccc(-c3ccccc3)s2)cc1 | inactive: 5.88% | –
COc1ccc(CNC(=O)c2ccc(CS(=O)Cc3cccc(Cl)c3)o2)cc1 (configuration not stated) | inconclusive: -20.4% | –
CCN(CC)S(=O)(=O)c1ccc(N/N=C(\C)c2ccc(OC)cc2O)nc1 | – | inconclusive: 1.16 µM [cytotoxic, full curve]
O=C(Nc1nc(-c2ccccn2)cs1)C1CC(=O)N(c2ccc3c(c2)OCCO3)C1 (configuration not stated) | – | inconclusive: 5.17 µM [cytotoxic, full curve]
Cc1cc(Cl)ccc1OCC(=O)NCC(c1cccs1)N1CCOCC1 (configuration not stated) | – | active: 7.31 µM
O=c1oc2c(CN3CCOCC3)c(O)ccc2cc1-c1ccccc1 | – | inconclusive: 5.8 µM [cytotoxic, partial curve, poor fit]
CC(=O)c1ccc(Oc2ncnc(N)c2[N+](=O)[O-])cc1 | – | inconclusive: 20.6 µM [cytotoxic, single point]
O=C(Nc1nc(-c2ccccn2)cs1)c1cc2ccccc2o1 | – | inconclusive: 16.4 µM [cytotoxic, partial curve, poor fit]
O=C(Nc1cccnc1)c1ccc(N2CCCC2)c([N+](=O)[O-])c1 | – | inconclusive: 20.6 µM [cytotoxic, single point]
C[C@H](CO)N1C[C@H](C)[C@H](CN(C)C(=O)c2ccncc2)OCc2cnnn2CCCC1=O | inactive: 0.49% | –
CCCCCC(C)NC(=S)NC(=O)c1cc(S(=O)(=O)N2CCOCC2)ccc1C (configuration not stated) | – | inconclusive: 16.4 µM [cytotoxic, partial curve]
O=C(Nc1ccc2oc(-c3ccc(Br)cc3)nc2c1)c1cc2ccccc2o1 | – | inconclusive: 29.1 µM [rising, single point]
COc1ccc(O)c(/C=N/NC(=S)Nc2cccc(S(=O)(=O)N(C)C)c2)c1 | – | active: 4.11 µM
C=CCn1c(N2CCCC2)nc2c1c(=O)[nH]c(=O)n2C | inactive: 2.28% | –

Reprinted from the entries so far for reference:
SMILES | activity change, negative = cytotoxicity | Potency
Cc1ccc(S(=O)(=O)NCCC(=O)NC2CCCCCC2)cc1C | – | active: 18.4 µM
COC(=O)c1[nH]c2ccc(C)cc2c1NC(=O)CN1CCCC(C)(C)C1 | – | inconclusive: 23.1 µM [cytotoxic, single point]
Cc1cc(Cl)ccc1OCC(=O)NCc1ccncc1 | – | inconclusive: 29.1 µM [cytotoxic, single point]
COc1ccccc1OCCNC(=O)C(c1ccccc1)c1ccccc1 | – | inconclusive: 6.51 µM [cytotoxic, partial curve]

Continued:

SMILES | activity change, negative = cytotoxicity | Potency
CCOC(=O)CC1C(=O)NCCN1C(=O)COc1ccc(Br)cc1C (configuration not stated) | – | inconclusive: 20.6 µM [cytotoxic, single point]
O=C(NCCc1nc2ccccc2n1Cc1ccc(Cl)cc1)c1ccccc1 | inconclusive: -31.5% | –
Cn1c(CNC(=O)C(Cc2ccccc2)NC(=O)c2ccccc2)cc(=O)n(C)c1=O (configuration not stated) | – | inconclusive: 20.6 µM [cytotoxic, partial curve, poor fit]
CCC1(C)Cc2ccccc2-c2nc(NN)[nH]c(=O)c21 (configuration not stated) | inactive: 2.11% | –
c1ccc(NC2=NCCN2CCC2CCCC2)cc1 | inactive: 0% | –
COc1ccc(CCNC(=O)c2cnc3sc(N4CCCCCC4)nn3c2=O)cc1 | inactive: 18% | –
CCOC(=O)CSc1nc2c(sc(=S)n2CCc2ccccc2)c(=O)n1Cc1ccco1 | – | inconclusive: 5.8 µM [cytotoxic, partial curve, poor fit]
Cc1ccc(C(=O)OCc2cc(=O)n3nc(CC(C)C)sc3n2)cc1 | – | inconclusive: 29.1 µM [rising, single point]
CC(=O)Nc1nc2ccccc2n1CCOc1ccccc1Cl | inactive: -13.5% | –
O=C(/C=C/c1ccncc1)c1ccc(NC(=O)c2ccccc2F)cc1 | – | inconclusive: 29.1 µM [cytotoxic, single point]
CN(Cc1ccccc1)C(=O)c1ccc(CSc2nc3cccnc3n2Cc2ccccc2)cc1 | inactive: -23.3% | –
COc1cc(CN2CCN(c3cccc(C)c3C)CC2)cc(OC)c1O | – | active: 18.4 µM
CCCCn1c(N)c(N(CCOC)C(=O)COC(=O)CCOc2ccccc2C)c(=O)[nH]c1=O | – | inconclusive: 11.6 µM [rising, partial curve, poor fit]
COC(=O)c1cc(OC)c(OC)cc1NC(=O)CCC1CCCC1 | – | inconclusive: 7.94 µM [cytotoxic, partial curve, poor fit]
c1ccc(-c2noc(CSc3nnc(Cc4cccs4)n3-c3ccccc3)n2)cc1 | – | inconclusive: 7.31 µM [cytotoxic, partial curve, poor fit]
Cc1cccc(N2CCN(C(=O)Cc3c(C(=O)O)c(C)cn3C)CC2C)c1 (configuration not stated) | inactive: 21% | –
CN(C)CCNC(=O)C(=O)Nc1ccc2c(c1)N(S(=O)(=O)c1cccs1)CCC2 | – | inconclusive: 20.6 µM [cytotoxic, single point]
CN(C)S(=O)(=O)c1ccc(NC(=O)c2ccc3ncsc3c2)cc1 | – | inconclusive: 20.6 µM [cytotoxic, single point]
CCn1c2ccccc2c2cc(C3C(C#N)=C(C)NC(C)=C3C#N)ccc21 | – | inconclusive: 20.6 µM [cytotoxic, single point]
O=C(COc1ccc(Br)cc1Cl)NC1CCN(Cc2ccccc2)CC1 | – | inconclusive: 14.6 µM [cytotoxic, partial curve]
Cc1nn(-c2ccccc2)c(N)c1C1(O)C(=O)N(C(C)C)c2ccccc21 (configuration not stated) | inactive: 0.767% | –
COCCn1c(SCC(=O)NNC(=O)Cc2ccccc2)nc2ccccc2c1=O | inactive: 6.96% | –
COc1ccc(C(=O)NC2CCCc3c2cnn3-c2ccccc2F)cc1OC (configuration not stated) | – | inconclusive: 3.26 µM [cytotoxic, partial curve, poor fit]
CCC(=O)NCCc1sc2nc(-c3ccc(OC)cc3)nn2c1C | – | inconclusive: 18.4 µM [cytotoxic, partial curve]

SMILES | activity change, negative = cytotoxicity | Potency
COc1ccccc1CCNC(=O)C1(c2cccs2)CCOCC1 | inactive: 4.24% | –
CCCc1c(-c2ccc(Cl)cc2)ncn1Cc1ccccc1OC | – | active: 18.4 µM
CC(=O)c1cn(CC(=O)Nc2ccccc2C)c2ccccc12 | – | inconclusive: 0.731 µM [cytotoxic, full curve, poor fit]
CCc1nc2ccc(C(=O)Nc3ccc(OC)c(OC)c3)cn2c1N(C)Cc1ccc(OC)cc1 | – | inconclusive: 29.1 µM [cytotoxic, single point]
CCCCN(c1ccccc1)S(=O)(=O)c1cccc(C(=O)Nc2c(C)n(C)n(-c3ccccc3)c2=O)c1 | – | active: 2.59 µM
CCS(=O)(=O)c1ccc2oc(Nc3ccc(C(C)C)cc3)nc2c1 | inactive: -29.1% | –
Cc1ccc(-c2noc(CC(c3ccccc3)c3ccccc3)n2)cc1 | – | inconclusive: 29.1 µM [cytotoxic, single point]
Cc1cnc(C(=O)OC(C)C(=O)Nc2ccccc2-c2ccccc2)cn1 (configuration not stated) | – | inconclusive: 1.16 µM [rising, full curve]
COc1cc(C(=O)NCCc2ncccc2C)ccc1OC1CCN(C(C)=O)CC1 | – | inconclusive: 29.1 µM [rising, partial curve, poor fit]
CSCCC(NS(=O)(=O)c1ccc(C)cc1)C(=O)N1CCN(C(C)=O)CC1 (configuration not stated) | – | inconclusive: 6.51 µM [rising, partial curve, poor fit]
O=C1N(c2ccccc2)C2CS(=O)(=O)CC2N1c1ccc(Cl)c(Cl)c1 (configuration not stated) | inactive: -0.695% | –
CCn1c(CSc2nc3ccccc3s2)nnc1SCC(=O)c1ccc2c(c1)OCCO2 | – | inconclusive: 29.1 µM [cytotoxic, single point]
COc1cc([N+](=O)[O-])cc(/C=N/NC(=O)c2cc(-c3ccccc3)nc3ccccc23)c1O | – | inconclusive: 16.4 µM [cytotoxic, partial curve]
Cn1ncc2c(=O)[nH]cnc21 | – | inconclusive: 16.4 µM [rising, partial curve]
CCOC(=O)c1c(-c2ccccc2)oc2cc(Br)c(OCc3ccccc3)cc12 | inactive: 23.7% | –
CC1CC(C)CN(C(=O)CCn2c(=O)oc3ccccc32)C1 (configuration not stated) | inactive: 0% | –
CC(=O)Nc1ccc(S(=O)(=O)N2CCC(c3nc4c(nnn4Cc4ccccc4Cl)c(=O)[nH]3)CC2)cc1 | inactive: 24.8% | –
O=C(Cn1c(=O)n(-c2ccc(F)c(Cl)c2)c(=O)c2sc3ccccc3c21)NC1CCCCC1 | inactive: -0.901% | –
Cc1cc(C)c2c(N)c(C(=O)N/N=C/c3cccs3)sc2n1 | inactive: -11% | –
O=C(COC(=O)CNC(=O)c1ccccc1Cl)NC1CC1 | – | inconclusive: 29.1 µM [rising, single point]
COc1ccc(Cn2cc(CN3CCc4onc(-c5ccc(Br)cc5)c4C3=O)nn2)cc1 | – | active: 20.6 µM
COc1ccccc1[C@@H]1C(c2ccc(F)cc2)=NN(c2ccccc2)[C@H]1C(=O)N1CCOC1=O | inactive: -7.86% | –
Cc1ccc(Cl)cc1Nc1nn2c(=O)c3ccc(C(=O)NC4CCC(C)CC4)cc3nc2s1 (configuration not stated) | inactive: 8.93% | –
CCOc1ccc(C(=O)NCCc2csc(-c3cccnc3)n2)cc1 | – | inconclusive: 11.6 µM [cytotoxic, partial curve]
